According to the supplement of paper PMC12067093, “Discovery and optimisation of a covalent ligand for TRIM25 and its application to targeted protein ubiquitination” (Chemical Science, 2025):
Some of the results follow.

Compound: CC1Cc2ccccc2N1C(=O)C1CCCN(C1)C(=O)CCl (mixture of isomers) [TRIM25 ligand 11 (diastereomer mixture)]
Test: probe-labelled cysteine peptide fold change vs DMSO (competition) (log2 fold change); higher = less target engagement (more negative = stronger competition)
Settings: THP-1, incubation time: 4 h
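Note: competitive chemoproteomic profiling in live THP-1 cells with an iodoacetamide desthiobiotin (IA-DTB) probe, comparing probe-labelled peptide intensities in compound-treated cells against DMSO-treated controls.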

| Target | probe-labelled cysteine peptide fold change (10 µM) | probe-labelled cysteine peptide fold change (50 µM) |
| --- | --- | --- |
| CNTRL_Q7Z7A1_1423_HHEDIVDEIECIEK (UniProt Q7Z7A1) | 0.0444 | 0.0739 |
| COPG2_Q9UBF2_230_SQFAYCMLIR (UniProt Q9UBF2) | -0.262 | 0.206 |
| CNBP_P62633_122_CYSCGEFGHIQK (UniProt P62633) | 0.0146 | 0.0788 |
| COLGALT1_Q8NBJ5_203_AAYSNFWCGMTSQGYYKR (UniProt Q8NBJ5) | -0.339 | -0.341 |
| CLUH_O75153_762_DCMEHAVLPVDGATLAEVMR (UniProt O75153) | 0.127 | -0.000484 |
| CNP_P09543_335_AHITLGCAADVEAVQTGLDLLEILR (UniProt P09543) | -0.305 | -0.113 |
| CNBP_P62633_98_EQCCYNCGKPGHLAR (UniProt P62633) | -0.12 | -0.147 |
| CNOT1_A5YKK6_219_CPVVLAPLLYPEK (UniProt A5YKK6) | -0.118 | -0.241 |
| COPA_P53621_1148_ILSACEK (UniProt P53621) | -0.0391 | 0.0395 |
| CMPK2_Q5EBM0_243_AVLDLVDQCPK (UniProt Q5EBM0) | -0.301 | -0.312 |
| COG5_Q9UP83_366_KRDPVSHICFIEEIVK (UniProt Q9UP83) | 0.187 | 0.00813 |
| CMPK2_Q5EBM0_40_RFVLELPDCTLAHFALGADAPGDADAPDPR (UniProt Q5EBM0) | -0.0614 | -0.0684 |
| COMT_P21964_223_KGTVLLADNVICPGAPDFLAHVR (UniProt P21964) | 0.0121 | 0.0339 |
| COQ3_Q9NZJ6_155_ILDVGCGGGLLTEPLGR (UniProt Q9NZJ6) | -0.269 | -0.3 |
| COPG1_Q9Y678_169_CSFDVVK (UniProt Q9Y678) | 0.0159 | 0.117 |
| CMPK2_Q5EBM0_40_FVLELPDCTLAHFALGADAPGDADAPDPR (UniProt Q5EBM0) | 0.0258 | -0.0726 |
| COPG2_Q9UBF2_280_NKHEMVIYEAASAIIHLPNCTAR (UniProt Q9UBF2) | -0.158 | 0.0584 |
| CMPK2_Q5EBM0_422_MENPGCHVVDASPSR (UniProt Q5EBM0) | 0.106 | -0.137 |
| CNN2_Q99439_61_DGTILCTLMNK (UniProt Q99439) | 0.00655 | 0.0892 |
| CMTR1_Q8N1G2_191_KMIIEDETEFCGEELLHSVLQCK (UniProt Q8N1G2) | -0.196 | -0.272 |

| Target | probe-labelled cysteine peptide fold change (10 µM) | probe-labelled cysteine peptide fold change (50 µM) |
| --- | --- | --- |
| CNOT10_Q9H9A5_399_LAECCIAANK (UniProt Q9H9A5) | -0.137 | 0.183 |
| COG7_P83436_505_YLSDSCSPR (UniProt P83436) | -0.0515 | 0.016 |
| COPS6_Q7L5N1_143_QVCEIIESPLFLK (UniProt Q7L5N1) | 0.303 | 0.269 |
| COMMD4_Q9H0A8_34_LLCSQVLK (UniProt Q9H0A8) | 0.00723 | 0.0589 |
| CLUH_O75153_84_ILAPGIEPFSLQVSPQEMVQEIHQVLMDREDTCHR (UniProt O75153) | -0.0655 | 0.0183 |
| COMP_P49747_351_WGDACDNCR (UniProt P49747) | 0.508 | 0.299 |
| COQ3_Q9NZJ6_358_GETEELQANACTNPAVHEK (UniProt Q9NZJ6) | -0.017 | -0.163 |
| COPA_P53621_1013_LQLCYQLTTVGK (UniProt P53621) | 0.164 | 0.274 |
| COG8_Q96MW5_165_HTEILEILEIPQLMDTCVR (UniProt Q96MW5) | 0.0274 | -0.0196 |
| COPG1_Q9Y678_258_DSPLFDFIESCLR (UniProt Q9Y678) | 0.203 | 0.121 |
| CNBP_P62633_97_EQCCYNCGK (UniProt P62633) | 0.199 | 0.323 |
| COG3_Q96JB2_334_IPEYQQLLNDIHQCYLDQR (UniProt Q96JB2) | 0.169 | 0.116 |
| COMT_P21964_119_IVDAVIQEHQPSVLLELGAYCGYSAVR (UniProt P21964) | -0.0429 | 0.0342 |
| COG3_Q96JB2_363_DHCALVR (UniProt Q96JB2) | -0.0125 | -0.0954 |
| CNPY2_Q9Y2B0_28_SQDLHCGACR (UniProt Q9Y2B0) | 0.0309 | 0.016 |
| COA7_Q96BR5_100_CFLMACEK (UniProt Q96BR5) | -0.056 | 0.083 |
| COASY_Q13057_144_YATSCYSCCPR (UniProt Q13057) | -0.192 | -0.216 |
| COPB2_P35606_40_SVDLHPTEPWMLASLYNGSVCVWNHETQTLVK (UniProt P35606) | 0.11 | -0.116 |
| COPB2_P35606_681+689_CQFGLAQECLHHAQDYGGLLLLATASGNANMVNK (UniProt P35606) | 0.0207 | -0.194 |

An excerpt from the list above:

| Target | probe-labelled cysteine peptide fold change (10 µM) | probe-labelled cysteine peptide fold change (50 µM) |
| --- | --- | --- |
| COMT_P21964_119_IVDAVIQEHQPSVLLELGAYCGYSAVR (UniProt P21964) | -0.0429 | 0.0342 |
| COG3_Q96JB2_363_DHCALVR (UniProt Q96JB2) | -0.0125 | -0.0954 |
| CNPY2_Q9Y2B0_28_SQDLHCGACR (UniProt Q9Y2B0) | 0.0309 | 0.016 |
